The list is a part of this screen's results and no random one: it is rich in T/C values a quarter to a half above the control, in often repeated tests (any T/C) and in doses without a T/C. Further doses and runs are listed elsewhere. T/C gives the treated animals as a percentage of the vehicle group. Where survival is the endpoint, this PubChem deposit counts one and a half times the control or more as active, and values a quarter to a half above the control carry no call in these data; other NCI protocols may use other cut-offs. Schedules are NCI's codes, read here as Q, the interval in days (D) or hours (H), X, the number of doses. Brackets with × give the number of equal values in this list. Some T/C values carry the count of animals alive at the toxicity check (mostly the fifth day); where none is given, no animal had died by that day. Some entries hold several experiments; their values stand side by side, smallest first.
Test system: L1210 leukemia ip in BDF1 mice, survival T/C
Assay: NCI In Vivo Anticancer Drug Screen. Data for tumor model L1210 Leukemia (intraperitoneal) in B6D2F1 (BDF1) mice
Details: T/C endpoint: median survival time, higher T/C = longer survival

CN(C)/N=N/c1nc[nH]c1C(N)=O was tested, and the T/C (dose: 180.0 mg/kg/injection, schedule: Q01DX009 (ip), vehicle: Klucel (hydroxypropylcellulose) (HPC), evaluated on day 30) was 140 (2×) and 152 % of control, the T/C (dose: 180.0 mg/kg/injection, schedule: Q01DX009 (ip), vehicle: Klucel (hydroxypropylcellulose) (HPC), evaluated on day 33) was 116 % of control and the T/C (dose: 180.0 mg/kg/injection, schedule: Q01DX011 (ip), vehicle: Klucel (hydroxypropylcellulose) (HPC), evaluated on day 5) was 129 % of control. The T/C (dose: 180.0 mg/kg/injection, schedule: Q01DX011 (ip), vehicle: Klucel (hydroxypropylcellulose) (HPC), evaluated on day 46) was 127 % of control, the T/C (dose: 180.0 mg/kg/injection, schedule: Q01DX012 (ip), vehicle: Klucel (hydroxypropylcellulose) (HPC), evaluated on day 5) was 141 % of control and the T/C (dose: 180.0 mg/kg/injection, schedule: Q01DX012 (ip), vehicle: Klucel (hydroxypropylcellulose) (HPC), evaluated on day 46) was 144 % of control. The T/C (dose: 180.0 mg/kg/injection, schedule: Q01DX015 (ip), vehicle: Klucel (hydroxypropylcellulose) (HPC), evaluated on day 5) was 119 and 148 % of control, the T/C (dose: 180.0 mg/kg/injection, schedule: Q01DX015 (ip), vehicle: Klucel (hydroxypropylcellulose) (HPC), evaluated on day 7) was 101 % of control and the T/C (dose: 180.0 mg/kg/injection, schedule: Q01DX015 (ip), vehicle: Klucel (hydroxypropylcellulose) (HPC), evaluated on day 20) was 101 % of control. The T/C (dose: 180.0 mg/kg/injection, schedule: Q01DX015 (ip), vehicle: Klucel (hydroxypropylcellulose) (HPC), evaluated on day 33) was 120 % of control, the T/C (dose: 180.0 mg/kg/injection, schedule: Q01DX015 (ip), vehicle: Klucel (hydroxypropylcellulose) (HPC), evaluated on day 38) was 150 % of control and the T/C (dose: 180.0 mg/kg/injection, schedule: Q01DX017 (ip), vehicle: Klucel (hydroxypropylcellulose) (HPC), evaluated on day 5) was 150 and 151 % of control. For the same molecule, the T/C (dose: 180.0 mg/kg/injection, schedule: Q01DX017 (ip), vehicle: Klucel (hydroxypropylcellulose) (HPC), evaluated on day 33) was 150 % of control, the T/C (dose: 180.0 mg/kg/injection, schedule: Q01DX017 (ip), vehicle: Klucel (hydroxypropylcellulose) (HPC), evaluated on day 38) was 155 % of control and the T/C (dose: 200.0 mg/kg/injection, schedule: Q01DX009 (ip), vehicle: Klucel (hydroxypropylcellulose) (HPC), evaluated on day 24) was 150 % of control. For the same molecule, the T/C (dose: 200.0 mg/kg/injection, schedule: Q01DX009 (ip), vehicle: Klucel (hydroxypropylcellulose) (HPC), evaluated on day 26) was 140 % of control [7 of 8 alive], the T/C (dose: 200.0 mg/kg/injection, schedule: Q01DX009 (ip), vehicle: Klucel (hydroxypropylcellulose) (HPC), evaluated on day 30) was 127 and 133 % of control and the T/C (dose: 200.0 mg/kg/injection, schedule: Q01DX009 (ip), vehicle: Klucel (hydroxypropylcellulose) (HPC), evaluated on day 40) was 166 % of control. The T/C (dose: 200.0 mg/kg/injection, schedule: Q01DX017 (ip), vehicle: steroid suspending solution, evaluated on day 5) was 153 % of control, the T/C (dose: 200.0 mg/kg/injection, schedule: Q01DX017 (ip), vehicle: steroid suspending solution, evaluated on day 30) was 133 and 153 % of control and the T/C (dose: 200.0 mg/kg/injection, schedule: Q01DX017 (ip), vehicle: steroid suspending solution, evaluated on day 40) was 150 % of control. For the same molecule, the T/C (dose: 200.0 mg/kg/injection, schedule: Q01DX017 (ip), vehicle: steroid suspending solution, evaluated on day 45) was 155 % of control [7 of 8 alive], the T/C (dose: 200.0 mg/kg/injection, schedule: Q01DX017 (ip), vehicle: steroid suspending solution, evaluated on day 50) was 144 and 150 % of control [7 of 8 alive] and the T/C (dose: 200.0 mg/kg/injection, schedule: Q01DX017 (ip), vehicle: steroid suspending solution, evaluated on day 54) was 150, 155, 156 % of control. For the same molecule, the T/C (dose: 200.0 mg/kg/injection, schedule: Q01DX017 (ip), vehicle: steroid suspending solution, evaluated on day 60) was 150 % of control, the T/C (dose: 200.0 mg/kg/injection, schedule: Q01DX017 (ip), vehicle: steroid suspending solution, evaluated on day 69) was 150 % of control and the T/C (dose: 300.0 mg/kg/injection, schedule: Q01DX009 (ip), vehicle: Klucel (hydroxypropylcellulose) (HPC), evaluated on day 5) was 168 % of control (2×). The T/C (dose: 300.0 mg/kg/injection, schedule: Q01DX009 (ip), vehicle: Klucel (hydroxypropylcellulose) (HPC), evaluated on day 27) was 168 % of control [7 of 8 alive], the T/C (dose: 300.0 mg/kg/injection, schedule: Q01DX009 (ip), vehicle: Klucel (hydroxypropylcellulose) (HPC), evaluated on day 30) was 120 [7 of 8 alive], 145, 168 % of control and the T/C (dose: 300.0 mg/kg/injection, schedule: Q01DX009 (ip), vehicle: Klucel (hydroxypropylcellulose) (HPC), evaluated on day 33) was 111 % of control. The T/C (dose: 300.0 mg/kg/injection, schedule: Q01DX012 (ip), vehicle: Klucel (hydroxypropylcellulose) (HPC), evaluated on day 5) was 141 % of control, the T/C (dose: 300.0 mg/kg/injection, schedule: Q01DX012 (ip), vehicle: Klucel (hydroxypropylcellulose) (HPC), evaluated on day 46) was 144 % of control and the T/C (dose: 300.0 mg/kg/injection, schedule: Q01DX015 (ip), vehicle: Klucel (hydroxypropylcellulose) (HPC), evaluated on day 5) was 141 and 154 % of control. The T/C (dose: 300.0 mg/kg/injection, schedule: Q01DX015 (ip), vehicle: Klucel (hydroxypropylcellulose) (HPC), evaluated on day 7) was 106 % of control, the T/C (dose: 300.0 mg/kg/injection, schedule: Q01DX015 (ip), vehicle: Klucel (hydroxypropylcellulose) (HPC), evaluated on day 20) was 106 % of control and the T/C (dose: 300.0 mg/kg/injection, schedule: Q01DX015 (ip), vehicle: Klucel (hydroxypropylcellulose) (HPC), evaluated on day 33) was 140 % of control. For the same molecule, the T/C (dose: 300.0 mg/kg/injection, schedule: Q01DX015 (ip), vehicle: Klucel (hydroxypropylcellulose) (HPC), evaluated on day 38) was 155 % of control, the T/C (dose: 300.0 mg/kg/injection, schedule: Q01DX017 (ip), vehicle: Klucel (hydroxypropylcellulose) (HPC), evaluated on day 5) was 121 and 128 % of control and the T/C (dose: 300.0 mg/kg/injection, schedule: Q01DX017 (ip), vehicle: Klucel (hydroxypropylcellulose) (HPC), evaluated on day 33) was 130 % of control [7 of 8 alive]. The T/C (dose: 300.0 mg/kg/injection, schedule: Q01DX017 (ip), vehicle: Klucel (hydroxypropylcellulose) (HPC), evaluated on day 38) was 122 % of control and the T/C (dose: 300.0 mg/kg/injection, schedule: Q04DX003 (ip), vehicle: steroid suspending solution) was 140 % of control.
